These are yes or no findings as the source states them, for the method shown. Binding seen in cells or lysates may run through a third protein. Here binding means that the protein was enriched with, or labelled near, the bait; the list need not be complete.
T1: DNA damage-inducible transcript 4-like (DDIT4L) (UniProt Q96D03)
T1 sequence: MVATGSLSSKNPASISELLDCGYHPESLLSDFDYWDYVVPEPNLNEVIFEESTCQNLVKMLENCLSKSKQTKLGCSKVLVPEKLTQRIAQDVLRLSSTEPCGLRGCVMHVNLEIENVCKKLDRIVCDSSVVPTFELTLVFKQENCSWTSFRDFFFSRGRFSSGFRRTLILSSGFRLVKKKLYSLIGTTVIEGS

Chains of the proteins cited; added tags and fusions are not shown. Residues count along the entry.
UniProt P25705, residues 44-553: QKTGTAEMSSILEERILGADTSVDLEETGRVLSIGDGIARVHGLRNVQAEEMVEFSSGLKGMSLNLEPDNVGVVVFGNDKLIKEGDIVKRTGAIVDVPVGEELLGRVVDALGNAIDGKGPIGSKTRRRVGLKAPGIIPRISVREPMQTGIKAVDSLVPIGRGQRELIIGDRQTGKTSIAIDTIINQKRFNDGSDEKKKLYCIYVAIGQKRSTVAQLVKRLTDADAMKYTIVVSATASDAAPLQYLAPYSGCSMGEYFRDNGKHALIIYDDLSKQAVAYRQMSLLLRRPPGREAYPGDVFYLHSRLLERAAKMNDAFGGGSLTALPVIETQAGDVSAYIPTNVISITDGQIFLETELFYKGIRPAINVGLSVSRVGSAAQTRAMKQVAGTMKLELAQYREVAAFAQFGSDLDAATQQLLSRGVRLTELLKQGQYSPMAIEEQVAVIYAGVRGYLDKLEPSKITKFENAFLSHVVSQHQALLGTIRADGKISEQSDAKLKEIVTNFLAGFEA

B1: TOM40 (protein, UniProt O96008 1-361)
chain: MGNVLAASSPPAGPPPPPAPALVGLPPPPPSPPGFTLPPLGGSLGAGTSTSRSSERTPGAATASASGAAEDGACGCLPNPGTFEECHRKCKELFPIQMEGVKLTVNKGLSNHFQVNHTVALSTIGESNYHFGVTYVGTKQLSPTEAFPVLVGDMDNSGSLNAQVIHQLGPGLRSKMAIQTQQSKFVNWQVDGEYRGSDFTAAVTLGNPDVLVGSGILVAHYLQSITPCLALGGELVYHRRPGEEGTVMSLAGKYTLNNWLATVTLGQAGMHATYYHKASDQLQVGVEFEASTRMQDTSVSFGYQLDLPKANLLFKGSVDSNWIVGATLEKKLPPLPLTLALGAFLNHRKNKFQCGFGLTIG

Target: T1, DNA damage-inducible transcript 4-like (DDIT4L)
Test: affinity purification with mass spectrometry; HEK293 cells transfected with DDIT4L; lysate immunoprecipitated with anti-DDIT4L antibody; bands of ~40 and ~50 kDa identified by mass spectrometry

Row | Molecule | binding
1 | ATP5A (from UniProt P25705 44-553) | binds
2 | B1 | binds

— PMC13571239
